Experimental data published in patent US20200199216A1.

Legend:
[1] = biological target: equine IL17A-polyHis (equine); test: Western blot (earlier result retold in Example 15)
[2] = biological target: equine IL17A-polyHis (equine); test: Western blot, 0.6 µg protein, goat anti-mouse IgG-HRP
[3] = biological target: equine IL17A-polyHis (equine); test: Western blot: 0.6 µg protein per lane, SDS-PAGE, PVDF, goat anti-mouse IgG-HRP
[4] = biological target: equine IL17A-polyHis (equine); test: BLI (Octet); biotinylated equine IL17A-polyHis on streptavidin sensors, antibody 20 µg/mL

Measured: binding

B1: mouse monoclonal antibody Clone C (antibody, mouse IgG1, V domains shown)
VH: EVQLVESGGGLVQPGGSLKLSCAASGFTFSSYGMSWVRQTPDKRLELVAIINSNGGSTYYPDSVKGRFTISRDNDKNSLYLQMSSLKSEDTAMYYCVRCHYDYERVFDYWGQGTTLTVSS
VL: DIQMTQSSSYLSVSLGGRVTITCKANDHINNWLAWYQQKPGNAPRLLISGSTSLETGVPSRFSGSGSGKDYTLSITSLQTEDVATYYCQQYWSTPFTFGSGTKLEIK
binds: all assays above

Results are given in words; binding and its absence hold for the method and conditions named. A result given as binding can be weak or reduced; the word gives no strength.
